Patent publication US9371365B2 (The Trustees of the University of Pennsylvania, priority 2009, dated 2016)

Assay: general procedure: Fmoc solid-phase peptide synthesis; Low-loading Rink amide MBHA resin (0.34 mmol/g); DIC/HOAt
Settings: conjugation step

PEPTIDE1{[ac].I.C.V.[Trp1Me].Q.D.W.[Sar].A.H.R.C.I.[miniPEG3].[miniPEG3].K.[am]}|PEPTIDE2{[TriazAc].R.L.I.E.D.I.C.L.P.R.W.G.C.L.W.E.D.D.[am]}$PEPTIDE1,PEPTIDE1,3:R3-13:R3|PEPTIDE2,PEPTIDE2,8:R3-14:R3|PEPTIDE1,PEPTIDE2,17:R3-1:R3$$$V2.0
conjugation yield: 50%

Strings that start with PEPTIDE1 are HELM notation: dots part the residues, brackets hold end groups and non-standard residues.
